These results are taken from publication PMC8164026, “Intrapulmonary administration of purified NEIL2 abrogates NF-κB–mediated inflammation”.

Results are given in words; binding and its absence hold for the method and conditions named. Binding seen in cells or lysates may run through a third protein. Binding calls can cover weak binding; strength is not graded here. Tags and fused reporters may be left off the sequences shown.

For the assay, the target named is T1, Recombinant FLAG-tagged NEIL2 (NEIL2-FLAG) from h358 cells (UniProt Q969S2).
T1 sequence: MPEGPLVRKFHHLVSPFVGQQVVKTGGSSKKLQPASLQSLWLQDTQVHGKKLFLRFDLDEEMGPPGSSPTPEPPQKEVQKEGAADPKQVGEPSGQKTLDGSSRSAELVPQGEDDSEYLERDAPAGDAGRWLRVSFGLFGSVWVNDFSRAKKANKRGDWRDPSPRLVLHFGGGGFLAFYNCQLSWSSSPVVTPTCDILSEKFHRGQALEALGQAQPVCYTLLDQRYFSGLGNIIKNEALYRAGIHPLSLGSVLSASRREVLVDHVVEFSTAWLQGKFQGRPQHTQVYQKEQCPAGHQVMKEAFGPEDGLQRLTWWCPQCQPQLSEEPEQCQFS
The assay is described as follows: co-IP; anti-FLAG beads preincubated 1 h at 4 °C with whole cell lysates of h358 cells expressing control or NEIL2-FLAG vector, washed, then incubated 1 h at 4 °C with 1 μg rHis-RelA or GST-tagged RelA domains in 300 μl IP buffer (25 mM Tris-HCl pH 7.5, 150 mM NaCl, 1% Triton X-100, 5% glycerol, 1 mM DTT); immunoblot with anti-RelA, FLAG or GST; both purified.

With “GST-tagged Rel homology region of RelA (GST-RHR) (domain or fragment)”, the binding result is given as “binds”.
